Data as given in PubChem BioAssay AID493246 (Drosophila RNAi Screening Center, 2011).
The screen tested about 21,000 reagents; this is a random part of those with a known target gene and a result. Over the whole deposit, 429 (2%) got an active call. 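Values are raw and not normalised between plates; calls rest on per-plate z-scores that were not deposited.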 Not given: the amount of reagent, the time to read-out.

Screen: 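Genes fly cells need to grow and stay alive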 (primary screen)
System: Drosophila Kc and S2R+ cells
Reagent: long dsRNA against Drosophila genes
Measured: 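Raw, unnormalised count of remaining cells in each well; per-plate z-scores of cell number underlie the calls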
Reading the numbers: Kc cell number and S2R+ cell number: higher = more cells remaining
Call rule: 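Counted as a hit if cell number falls by a z-score of at least 3 within its plate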

qkr58E-1 [DRSC04709] — Kc cell number, rep 1: 1.35e6; Kc cell number, rep 2: 1.37e6; S2R+ cell number, rep 1: 9.18e5; S2R+ cell number, rep 2: 1.03e6; outcome: inactive
CG12662 [DRSC17865] — Kc cell number, rep 1: 1.50e6; Kc cell number, rep 2: 1.51e6; S2R+ cell number, rep 1: 1.11e6; S2R+ cell number, rep 2: 1.23e6; outcome: inactive
Or56a [DRSC07495] — Kc cell number, rep 1: 1.75e6; Kc cell number, rep 2: 1.78e6; S2R+ cell number, rep 1: 1.15e6; S2R+ cell number, rep 2: 1.35e6; outcome: inactive
CG31659 [DRSC00760] — Kc cell number, rep 1: 1.56e6; Kc cell number, rep 2: 1.57e6; S2R+ cell number, rep 1: 1.08e6; S2R+ cell number, rep 2: 1.22e6; outcome: inactive
4E-T [DRSC17201] — Kc cell number, rep 1: 4.87e5; S2R+ cell number, rep 1: 7.84e5; outcome: inactive
4E-T [DRSC17208] — Kc cell number, rep 1: 1.47e6; Kc cell number, rep 2: 1.57e6; S2R+ cell number, rep 1: 1.05e6; S2R+ cell number, rep 2: 1.23e6; outcome: inactive
CG1602 [DRSC06601] — Kc cell number, rep 1: 1.81e6; Kc cell number, rep 2: 1.82e6; S2R+ cell number, rep 1: 1.44e6; S2R+ cell number, rep 2: 1.53e6; outcome: inactive
Sur-8 [DRSC15794] — Kc cell number, rep 1: 1.32e6; Kc cell number, rep 2: 1.37e6; S2R+ cell number, rep 1: 1.23e6; S2R+ cell number, rep 2: 1.35e6; outcome: inactive
Nca [DRSC11233] — Kc cell number, rep 1: 1.39e6; Kc cell number, rep 2: 1.80e6; S2R+ cell number, rep 1: 1.33e6; S2R+ cell number, rep 2: 1.32e6; outcome: inactive
Rpn3 [DRSC03318] — Kc cell number, rep 1: 9.59e5; Kc cell number, rep 2: 9.85e5; S2R+ cell number, rep 1: 6.80e5; S2R+ cell number, rep 2: 2.69e5; outcome: active
Drs [DRSC08657] — Kc cell number, rep 1: 1.41e6; Kc cell number, rep 2: 1.30e6; S2R+ cell number, rep 1: 9.57e5; S2R+ cell number, rep 2: 1.22e6; outcome: inactive
CG12118 [DRSC17813] — Kc cell number, rep 1: 5.91e5; S2R+ cell number, rep 1: 8.99e5; outcome: inactive
CG42337 [DRSC11686] — Kc cell number, rep 1: 1.44e6; Kc cell number, rep 2: 1.42e6; S2R+ cell number, rep 1: 1.32e6; S2R+ cell number, rep 2: 1.37e6; outcome: inactive
CG42337 [DRSC11687] — Kc cell number, rep 1: 1.13e6; Kc cell number, rep 2: 1.07e6; S2R+ cell number, rep 1: 7.56e5; S2R+ cell number, rep 2: 8.37e5; outcome: active

A run of entries of the results above, as a working copy:
4E-T [DRSC17201] — Kc cell number, rep 1: 4.87e5; S2R+ cell number, rep 1: 7.84e5; outcome: inactive
4E-T [DRSC17208] — Kc cell number, rep 1: 1.47e6; Kc cell number, rep 2: 1.57e6; S2R+ cell number, rep 1: 1.05e6; S2R+ cell number, rep 2: 1.23e6; outcome: inactive
